Laboratory results reported in paper PMC11379068.
No constants are given. Whether binding was seen depends on the method and setting. Binding seen in cells or lysates may run through a third protein. Some results given as binding are weak or reduced against the parent protein; the word gives no strength.

By UniProt entry, the sequences of proteins in these tests, tags left out. Residues count along the entry.
UniProt P20029, residues 20-655: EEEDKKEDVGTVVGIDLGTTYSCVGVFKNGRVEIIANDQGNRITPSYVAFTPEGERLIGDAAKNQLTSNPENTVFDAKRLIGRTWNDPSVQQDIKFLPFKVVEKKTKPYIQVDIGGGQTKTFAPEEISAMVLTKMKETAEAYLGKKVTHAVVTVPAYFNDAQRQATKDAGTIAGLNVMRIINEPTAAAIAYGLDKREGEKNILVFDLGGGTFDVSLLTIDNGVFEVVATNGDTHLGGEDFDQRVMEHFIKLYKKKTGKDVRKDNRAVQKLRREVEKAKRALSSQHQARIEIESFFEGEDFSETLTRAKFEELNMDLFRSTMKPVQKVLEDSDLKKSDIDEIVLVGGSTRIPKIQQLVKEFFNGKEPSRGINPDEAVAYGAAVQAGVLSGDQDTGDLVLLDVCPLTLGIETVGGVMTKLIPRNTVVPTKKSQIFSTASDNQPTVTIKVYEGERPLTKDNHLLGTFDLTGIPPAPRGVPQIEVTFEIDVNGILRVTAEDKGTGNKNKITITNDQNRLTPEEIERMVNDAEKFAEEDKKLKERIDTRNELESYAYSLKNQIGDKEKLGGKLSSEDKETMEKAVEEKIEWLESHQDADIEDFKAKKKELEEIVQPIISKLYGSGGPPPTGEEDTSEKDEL

Target: GRP78 (mouse (endogenous in primary neurons)) (UniProt P20029)
Experiment: co-IP; lysates from around 10 million primary mouse neurons, immunoprecipitated with protein A/G magnetic beads linked to the appropriate antibody in IP buffer; detected by western blot

binding: binds
B1: MTHFD2 (protein, UniProt P18155 36-350)
chain: EAVVISGRKLAQQIKQEVQQEVEEWVASGNKRPHLSVILVGDNPASHSYVLNKTRAAAEVGINSETIVKPASVSEEELLNSIRKLNNDENVDGLLVQLPLPEHIDERKVCNAVSPDKDVDGFHVINVGRMCLDQYSMLPATPWGVWEIIKRTGIPTLGKNVVVAGRSKNVGMPIAMLLHTDGAHERPGGDATVTISHRYTPKEQLKKHTILADIVISAAGIPNLITADMIKEGAAVIDVGINRVQDPVTAKPKLVGDVDFEGVKKKAGYITPVPGGVGPMTVAMLMKNTIIAAKKVLRPEELEVFKSKQRGVATN
